Some of the results follow. For some of these results: The exact form of the protein is not confirmed.

Some test systems named below: ATP1B3 (human); ATP5E (human); ATP5H (human); ATP5L (human); ATP6AP2 (human); ATP6V1B1 (human); ATP6V1E1 (human); ATP6V1E2 (human).
Holding throughout (test): protein microarray (ProtoArray v5.0), streptavidin-Alexa Fluor 647
Conditions in all cases: 3'-biotin; 20 mM Tris (pH 7.5), 5 mM MgCl2, 100 mM KCl, 0.1% Tween-20, A/T-rich and random oligonucleotide blockers; temperature not stated; high values mean tight binding

Assay [1] concerns ATP-dependent RNA helicase A (human).
Another assay has as its target T1, ATP5C1 (UniProt P36542).
T1 sequence: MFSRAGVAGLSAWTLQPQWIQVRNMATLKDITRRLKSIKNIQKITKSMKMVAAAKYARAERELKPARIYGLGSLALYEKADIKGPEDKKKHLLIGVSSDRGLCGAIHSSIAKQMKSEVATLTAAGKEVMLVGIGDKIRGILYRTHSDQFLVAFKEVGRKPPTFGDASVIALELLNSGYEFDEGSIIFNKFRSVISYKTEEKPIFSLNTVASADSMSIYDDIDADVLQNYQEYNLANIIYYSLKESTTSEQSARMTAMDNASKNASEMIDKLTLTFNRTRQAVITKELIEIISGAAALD

“GGGAGGCTGAGGCAGG [G4-1 biotinylated (PQS2)]”: the binding signal in assay [1] was -0.293 z-score; in the assay with ATP1B3 (human), -0.33 z-score; in the assay with ATP5C1, -0.335 z-score; in the assay with ATP5E (human), -0.307 z-score; in the assay with ATP5H (human) it was -0.307 z-score; in the assay on ATP5L (human), -0.256 z-score. Besides, the binding signal is -0.291 z-score in the assay with ATP6AP2 (human), -0.345 z-score with ATP6V1B1 (human), -0.26 z-score in the assay with ATP6V1E1 (human) and -0.304 z-score with ATP6V1E2 (human).

The values above are taken from paper PMC5996148.
